Test results taken from paper PMC8274477.
These are yes or no findings as the source states them, for the method shown. Some results given as binding are weak or reduced against the parent protein; the word gives no strength. For some assays here: Sequences can lack the tags named with a protein.

Amino acid sequences for entries named in this document (tags omitted).
UniProt P22392: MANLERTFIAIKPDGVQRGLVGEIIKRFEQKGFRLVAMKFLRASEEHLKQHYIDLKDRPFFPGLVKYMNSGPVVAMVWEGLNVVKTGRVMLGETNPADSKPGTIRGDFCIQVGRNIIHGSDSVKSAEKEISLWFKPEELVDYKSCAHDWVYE
UniProt Q96LT6: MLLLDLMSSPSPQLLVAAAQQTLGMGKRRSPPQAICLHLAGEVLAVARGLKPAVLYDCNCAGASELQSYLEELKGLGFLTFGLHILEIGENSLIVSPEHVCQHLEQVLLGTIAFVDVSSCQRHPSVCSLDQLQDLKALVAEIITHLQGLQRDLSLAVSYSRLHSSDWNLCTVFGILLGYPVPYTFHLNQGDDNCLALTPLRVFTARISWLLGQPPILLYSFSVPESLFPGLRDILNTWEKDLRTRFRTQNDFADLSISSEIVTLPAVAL
UniProt Q8IU81: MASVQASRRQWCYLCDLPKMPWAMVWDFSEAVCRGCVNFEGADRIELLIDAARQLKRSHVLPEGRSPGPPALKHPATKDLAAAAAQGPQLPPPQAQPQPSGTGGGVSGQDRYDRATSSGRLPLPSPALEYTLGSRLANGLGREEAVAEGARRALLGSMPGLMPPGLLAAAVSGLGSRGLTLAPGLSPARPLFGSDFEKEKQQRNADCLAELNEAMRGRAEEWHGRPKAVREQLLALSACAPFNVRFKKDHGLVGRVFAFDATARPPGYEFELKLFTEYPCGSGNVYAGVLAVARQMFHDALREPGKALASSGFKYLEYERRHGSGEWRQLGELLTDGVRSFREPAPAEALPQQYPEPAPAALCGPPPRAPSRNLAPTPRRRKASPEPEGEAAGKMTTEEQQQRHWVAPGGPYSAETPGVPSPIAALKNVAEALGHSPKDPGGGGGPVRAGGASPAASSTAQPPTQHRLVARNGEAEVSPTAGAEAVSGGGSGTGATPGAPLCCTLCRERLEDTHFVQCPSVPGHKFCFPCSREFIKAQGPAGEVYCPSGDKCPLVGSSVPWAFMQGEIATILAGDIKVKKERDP

Assays:
Assay in all cases: peptide or protein array; HuProt human proteome microarray; 5 ug/5 ml biotin-labelled LUBAC or OTULIN in solution, 1 h at room temperature; Cy5-streptavidin, scanned at 635 nm; BSA as negative control; hits: Z-score >= 3 and I_(Mean_Ratio) >= 1.4; both purified
GSTZ1 (human) = biological target: T1, GSTZ1 (human) (UniProt O43708)
T1 sequence: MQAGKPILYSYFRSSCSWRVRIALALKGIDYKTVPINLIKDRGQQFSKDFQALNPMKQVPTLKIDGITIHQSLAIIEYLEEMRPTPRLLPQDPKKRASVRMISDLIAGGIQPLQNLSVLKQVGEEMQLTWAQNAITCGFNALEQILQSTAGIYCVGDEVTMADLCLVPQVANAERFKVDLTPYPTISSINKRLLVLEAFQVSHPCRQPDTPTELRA

FAM49B (human) = biological target: T2, FAM49B (human) (UniProt Q9NUQ9)
T2 sequence: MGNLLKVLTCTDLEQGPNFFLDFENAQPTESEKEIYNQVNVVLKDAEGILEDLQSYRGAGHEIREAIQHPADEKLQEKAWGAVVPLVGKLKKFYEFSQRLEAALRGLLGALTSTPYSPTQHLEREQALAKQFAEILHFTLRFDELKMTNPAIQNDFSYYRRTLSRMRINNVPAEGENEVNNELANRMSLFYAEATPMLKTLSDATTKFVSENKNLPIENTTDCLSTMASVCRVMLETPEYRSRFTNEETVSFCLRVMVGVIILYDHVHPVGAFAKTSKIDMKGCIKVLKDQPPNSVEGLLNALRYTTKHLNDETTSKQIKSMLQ

NUPL2 (human) = biological target: T3, NUPL2 (human) (UniProt O15504)
T3 sequence: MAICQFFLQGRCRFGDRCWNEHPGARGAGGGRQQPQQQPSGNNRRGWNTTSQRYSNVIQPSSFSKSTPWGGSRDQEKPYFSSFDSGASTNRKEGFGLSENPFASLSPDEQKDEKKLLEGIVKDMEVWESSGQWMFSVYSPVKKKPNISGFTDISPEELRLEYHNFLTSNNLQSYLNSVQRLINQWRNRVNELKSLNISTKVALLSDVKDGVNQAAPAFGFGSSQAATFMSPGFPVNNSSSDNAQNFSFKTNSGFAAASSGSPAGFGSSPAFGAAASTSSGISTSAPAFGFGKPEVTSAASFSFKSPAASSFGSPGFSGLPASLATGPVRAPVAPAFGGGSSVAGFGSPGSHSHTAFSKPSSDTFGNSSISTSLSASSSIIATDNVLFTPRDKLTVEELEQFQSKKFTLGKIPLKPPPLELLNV

CRYZ (human) = biological target: T4, CRYZ (human) (UniProt Q08257)
T4 sequence: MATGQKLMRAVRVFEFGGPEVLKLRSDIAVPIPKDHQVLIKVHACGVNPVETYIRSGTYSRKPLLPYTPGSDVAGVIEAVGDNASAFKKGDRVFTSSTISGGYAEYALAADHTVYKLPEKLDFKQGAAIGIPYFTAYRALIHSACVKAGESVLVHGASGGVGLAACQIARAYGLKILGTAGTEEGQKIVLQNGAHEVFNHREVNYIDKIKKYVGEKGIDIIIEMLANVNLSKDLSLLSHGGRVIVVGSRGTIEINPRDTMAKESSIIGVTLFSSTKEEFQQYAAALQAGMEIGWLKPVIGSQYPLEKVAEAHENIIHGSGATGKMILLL

NME2 (human) = NME2 (human) (UniProt P22392)
C1orf74 (human) = C1orf74 (human) (UniProt Q96LT6)
IRF2BP1 (human) = IRF2BP1 (human) (UniProt Q8IU81)
RTCA (human) = biological target: T5, RTCA (human) (UniProt O00442)
T5 sequence: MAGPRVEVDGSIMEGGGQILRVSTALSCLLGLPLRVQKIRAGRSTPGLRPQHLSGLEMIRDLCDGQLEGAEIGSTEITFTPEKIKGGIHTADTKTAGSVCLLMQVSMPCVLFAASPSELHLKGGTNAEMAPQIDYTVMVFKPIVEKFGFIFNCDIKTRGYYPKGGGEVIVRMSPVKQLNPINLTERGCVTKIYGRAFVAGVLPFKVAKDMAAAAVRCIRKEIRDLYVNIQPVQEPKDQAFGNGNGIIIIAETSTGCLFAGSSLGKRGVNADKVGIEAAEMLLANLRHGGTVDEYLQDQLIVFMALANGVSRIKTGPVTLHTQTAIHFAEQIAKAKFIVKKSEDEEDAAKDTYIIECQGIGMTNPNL

Measured: binding

linear ubiquitin chain assembly complex (LUBAC), purified as HIS-tagged HOIP with the subunit HOIL-1, biotin-labelled (from UniProt Q96EP0 1-1072; Q9BYM8 1-510)
binds: all assays above
